# Measurements: article PMC4726326, “The Arabidopsis glutamyl-tRNA reductase (GluTR) forms a ternary complex with FLU and GluTR-binding protein” (Scientific Reports, 2016)
# Chains of the proteins cited; added tags and fusions are not shown. Residues count along the entry.
# UniProt Q42522, residues 38-472: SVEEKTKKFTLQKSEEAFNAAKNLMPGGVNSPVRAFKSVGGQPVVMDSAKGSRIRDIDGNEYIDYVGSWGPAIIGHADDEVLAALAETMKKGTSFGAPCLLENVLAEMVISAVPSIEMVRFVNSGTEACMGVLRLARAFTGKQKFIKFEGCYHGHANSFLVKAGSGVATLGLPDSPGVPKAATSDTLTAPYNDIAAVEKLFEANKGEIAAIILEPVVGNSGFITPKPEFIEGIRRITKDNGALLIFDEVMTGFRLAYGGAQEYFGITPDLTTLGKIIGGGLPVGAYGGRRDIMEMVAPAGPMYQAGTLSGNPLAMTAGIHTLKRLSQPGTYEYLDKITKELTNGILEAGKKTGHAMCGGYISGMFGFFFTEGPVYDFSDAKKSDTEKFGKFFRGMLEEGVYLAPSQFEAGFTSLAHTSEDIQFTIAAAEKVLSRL
# No constants are given. Whether binding was seen depends on the method and setting.
# T1: Arabidopsis glutamyl-tRNA reductase (GluTR), residues 73-543 (Arabidopsis thaliana) (UniProt P42804)
# T1 sequence: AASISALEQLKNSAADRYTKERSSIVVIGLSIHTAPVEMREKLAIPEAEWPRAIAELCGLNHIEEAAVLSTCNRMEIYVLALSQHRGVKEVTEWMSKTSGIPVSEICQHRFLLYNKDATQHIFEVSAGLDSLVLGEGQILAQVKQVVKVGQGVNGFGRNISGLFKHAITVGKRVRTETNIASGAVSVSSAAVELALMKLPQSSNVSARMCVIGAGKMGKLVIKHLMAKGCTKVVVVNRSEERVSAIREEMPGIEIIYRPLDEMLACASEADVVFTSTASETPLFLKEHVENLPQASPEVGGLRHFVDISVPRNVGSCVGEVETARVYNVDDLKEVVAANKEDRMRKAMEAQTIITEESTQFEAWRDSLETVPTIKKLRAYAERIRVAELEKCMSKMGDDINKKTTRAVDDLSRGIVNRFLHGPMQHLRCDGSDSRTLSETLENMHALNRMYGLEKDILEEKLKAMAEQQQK
# T2: GluTR-GBP complex (Arabidopsis thaliana) (UniProt P42804+Q9LU39)
# T2 sequence 1: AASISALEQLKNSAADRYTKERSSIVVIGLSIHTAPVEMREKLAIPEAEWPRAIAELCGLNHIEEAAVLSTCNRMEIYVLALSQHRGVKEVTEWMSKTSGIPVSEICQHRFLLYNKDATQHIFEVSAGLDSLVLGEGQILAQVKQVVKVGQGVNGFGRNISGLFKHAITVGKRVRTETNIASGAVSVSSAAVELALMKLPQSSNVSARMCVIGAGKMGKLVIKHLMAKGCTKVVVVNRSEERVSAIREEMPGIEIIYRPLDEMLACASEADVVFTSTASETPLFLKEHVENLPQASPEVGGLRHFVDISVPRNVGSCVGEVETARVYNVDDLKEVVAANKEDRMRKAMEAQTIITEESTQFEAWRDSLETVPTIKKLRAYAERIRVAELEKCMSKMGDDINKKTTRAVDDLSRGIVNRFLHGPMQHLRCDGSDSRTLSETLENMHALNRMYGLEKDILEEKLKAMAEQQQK
# T2 sequence 2: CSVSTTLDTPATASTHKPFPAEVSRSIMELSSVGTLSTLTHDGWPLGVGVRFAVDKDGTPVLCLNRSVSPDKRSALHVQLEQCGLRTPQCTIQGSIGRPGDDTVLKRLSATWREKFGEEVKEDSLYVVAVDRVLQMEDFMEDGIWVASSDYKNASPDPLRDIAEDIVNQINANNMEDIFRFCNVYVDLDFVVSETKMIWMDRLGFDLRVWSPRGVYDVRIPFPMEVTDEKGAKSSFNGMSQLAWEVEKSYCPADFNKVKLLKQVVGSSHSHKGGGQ
# T3: Arabidopsis GluTR-binding protein (GBP), residues 42-317 (Arabidopsis thaliana) (UniProt Q9LU39)
# T3 sequence: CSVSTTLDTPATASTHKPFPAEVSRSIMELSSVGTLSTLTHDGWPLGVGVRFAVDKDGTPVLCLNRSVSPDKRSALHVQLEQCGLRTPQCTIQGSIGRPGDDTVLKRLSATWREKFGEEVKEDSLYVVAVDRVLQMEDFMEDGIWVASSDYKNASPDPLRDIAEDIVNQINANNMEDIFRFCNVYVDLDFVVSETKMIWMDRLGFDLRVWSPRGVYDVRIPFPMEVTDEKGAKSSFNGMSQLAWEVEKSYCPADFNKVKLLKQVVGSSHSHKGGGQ
# Legend:
# [1] = target: T1, Arabidopsis glutamyl-tRNA reductase (GluTR), residues 73-543 (Arabidopsis thaliana); assay: ITC; MicroCal iTC200, 25 °C; 20 mM Tris-HCl pH 7.5, 150 mM NaCl; 20 injections of 2 μl of 0.5 mM protein into 200 μl of 50 μM protein; one-site binding model; apparent Kd; both purified
# [2] = target: T2, GluTR-GBP complex (Arabidopsis thaliana); assay: as above
# [3] = target: T3, Arabidopsis GluTR-binding protein (GBP), residues 42-317 (Arabidopsis thaliana); assay: SEC; purified GluTR, GBP and FLU^TPR mixed at molar ratio 2:3:3, 1 hour at 4 °C; HiLoad 16/60 Superdex 200 pg; 20 mM Tris-HCl pH 7.5, 200 mM NaCl, 4 mM dithiothreitol; both purified
Molecule,binding [1],binding [2],binding [3]
"Mature Arabidopsis glutamate-1-semialdehyde aminomutase (GSAM), starting at residue 38 (from UniProt Q42522 38-472) (enzyme)",no binding (tested: 0.5 mM injected into 50 μM),no binding (tested: 0.5 mM injected into 50 μM),–
"C-terminal tetratricopeptide-repeat domain of Arabidopsis FLUORESCENT (FLU), residues 195-316 (domain or fragment, Arabidopsis thaliana, UniProt Q940U6 195-316, looked up, FLUORESCENT (FLU), Arabidopsis thaliana, At3g14110, truncation of residues 195-316 (TPR domain); Expression vector pET-22b(+); also called FLU^TPR; the recombinant TPR domain of FLU) IVEPKKQELISKLKTGKTFLRNQEPEKAYTEFKIALELAQSLKDPTEEKKAARGLGASLQRQGKYREAIQYHSMVLAISKRESEDSGITEAYGAIADCYTELGDLEKAGKFYDTYIARLETD",–,–,no binding
